{
  "source": "paper PMC5391603",
  "about": "“Identification and functional characterisation of a Schistosoma japonicum insulin-like peptide” (Parasites & Vectors, 2017)",
  "tested_on": "adult S. japonicum",
  "assay": "Immunolocalisation (HRP labelling) in adult S. japonicum sections",
  "settings": "HRP labelling of cryostat sections, mouse anti-SjILP serum or mouse anti-human insulin mAb 1:100",
  "note": "“Also recorded” adds a separate entry of the source.",
  "data": [
    {"substance": "human insulin: human insulin (Sigma-Aldrich)", "values": [
      {"measurement": "localisation in adult S. japonicum", "value": "detected only on the surface of adult male and female S. japonicum; also recorded: detected on the tegument of adult worms with less HRP labelling compared to that observed in SjILP"}
    ]}
  ]
}
